Publication PMC6593165

B1: His-SAPK10 (enzyme, UniProt Q75H77 1-362)
chain: MDRAALTVGPGMDMPIMHDGDRYELVRDIGSGNFGVARLMRSRADGQLVAVKYIERGDKIDENVQREIINHRSLRHPNIIRFKEVILTPTHLAIVMEYASGGELFERICNAGRFSEDEARFFFQQLISGVSYCHSMQVCHRDLKLENTLLDGSTAPRLKICDFGYSKSSVLHSQPKSTVGTPAYIAPEVLLKKEYDGKIADVWSCGVTLYVMLVGAYPFEDPDEPKNFRKTIQRILGVQYSIPDYVHISPECRDLIARIFVANPATRISIPEIRNHPWFLKNLPADLMDDSKMSSQYEEPEQPMQSMDEIMQILAEATIPAAGSGGINQFLNDGLDLDDDMEDLDSDPDLDVESSGEIVYAM
B2: SAPK10-GFP (enzyme, UniProt Q75H77 1-362)
chain: B1 chain

Tests used:
GST-WRKY72 (rice) = experiment: pull-down; GST pull-down in vitro with proteins expressed and purified in E. coli; immunoblotting with anti-GST and anti-His antibodies; both purified
WRKY72-FLAG (rice) = experiment: co-IP; proteins extracted from infiltrated Nicotiana benthamiana leaves; precipitates immunoblotted with GFP and FLAG antibodies

| Binder | binding (GST-WRKY72 (rice)) | binding (WRKY72-FLAG (rice)) |
| --- | --- | --- |
| B1 | binds | – |
| B2 | – | binds |

These are yes or no findings as the source states them, for the method shown. Binding calls can cover weak binding; strength is not graded here. Sequences can lack the tags named with a protein. For some assays here: In cells and extracts the contact can be indirect.
